Our source for the cell number change and AC50 values is PubChem BioAssay AID2685 (National Center for Advancing Translational Sciences (NCATS), 2010).

This is one part of the list. These are further read-outs of the screen, such as a control signal, another cell line or another target. No call is given for them. Most of these compounds were active or inconclusive in the main read-out, so they are no random draw. Potencies come from curve fits of mixed quality, noted in brackets.

What is called AC50 is the concentration at which the activity in the assay is half-maximal. Read a high AC50 as activity only at high concentration.

The nature of this assay: qHTS Assay for Lipid Storage Modulators in Drosophila S3 Cells.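 On cell number change: cells counted by Cell Tracker Red CMTPX staining in the red channel.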 The following applies: BODIPY lipid droplet fluorescence, 18-24 h; for cell number change: measured here: cell count max response, cells fed with added oleic acid. The essentials: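 Laser-scanning cytometry quantifies lipid droplet accumulation (500–530 nm total intensity; droplet/cell object ratio) in oleic acid-fed (400 uM added) Drosophila S3 cells treated with a concentration series. 20 uM Triacsin C defined 100% inhibition.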
On the technique in general: Quantitative high-throughput screening tests each substance at several concentrations.

The mark [1] stands for this setting: measured here: cell number channel AC50, cells fed with added oleic acid.
[2] abbreviates: measured here: lipid fluorescence (Fed channel) AC50, cells fed with added oleic acid.

On to `CC(=O)Nc1ccc(SCCCC(=O)c2ccccc2)cc1`, for which the cell number change came out at 30.2%. Further, the AC50 under setting [1] was 29.1 µM [rising, single point]. Moreover, the concentration at half-maximal activity (AC50) under setting [2] is 20.6 µM [rising, partial curve].
Turning to `CCOc1cc(/C=C/C(=O)O)ccc1OCCOc1ccccc1`, the cell number change came to 5.13%.
As to `Cc1cc(Nc2ccc(F)cc2C)n2nc(C)nc2n1`, the cell number change was -2.43%.
On to `CCOc1ccc(-n2cc(C(=O)Nc3ccc(Cl)cn3)c3cc(OC)c(OC)cc3c2=O)cc1`, for which the cell number change was found to be 8.94%.
As for `CCC1C(=O)NCCN1C(=O)c1ccc2nc(Cc3cccc(Cl)c3)oc2c1` (centres undefined), the cell number change was -42.1%. The AC50 under setting [1] is 0.517 µM [falling, full curve, poor fit]. In addition, the AC50 under setting [2] was 29.1 µM [rising, single point].
On to `CC(C)C1C(c2ccccc2)N(C)C(c2ccccc2)CC1(O)c1ccccc1` (centres undefined), for which the cell number change is -11.5%. In addition, the AC50 under setting [2] was 0.651 µM [falling, single point].
`COc1ccc(OC)c(NC(=O)c2cnc(Nc3ccccc3OC)c3ccccc23)c1`: the cell number change worked out at 7.05%. In addition, the half-maximal activity concentration (AC50) under setting [1] is 0.116 µM [rising, full curve, poor fit]. The AC50 under setting [2] is 0.82 µM [rising, full curve].
Regarding `CCC1Oc2ccccc2N(CC(=O)NCC2CCCO2)C1=O` (centres undefined), the cell number change was determined as 20%.
With `Cc1ccc(OCCNC(=O)CCNS(=O)(=O)c2ccc3ccccc3c2)cc1`, the cell number change is -7.13%. Under setting [2], the AC50 was 6.51 µM [rising, partial curve].
As for `COC(=O)c1ccc(/C=C/C(=O)OCC(=O)Nc2ncc(Cl)cc2Cl)cc1`, the cell number change is -24.8%. Under setting [1], the AC50 was 0.184 µM [falling, full curve, poor fit]. Under setting [2], the AC50 was 0.146 µM [falling, full curve, poor fit].
As to `Cc1ccc(C(C(=O)NC2CCCC2)N(C(=O)c2csnn2)c2cccc(F)c2)o1` (centres undefined), the cell number change turned out to be 29%.
`CN(C)/N=C/c1ccc(N2CCOCC2)cc1`: the cell number change was determined as 13.2%. Further, the AC50 under setting [1] is 0.00461 µM [falling, full curve, poor fit].
Regarding `Cc1ccc(NS(=O)(=O)c2c(C)noc2C)cc1`, the cell number change came to 22.2%.
In the case of `CCCC[C@@H]1CNCCN1CC1(c2ccccc2)CC1`, the cell number change is -11.4%. For the same molecule, under setting [1], the concentration at half-maximal activity (AC50) is 0.0291 µM [rising, partial curve, poor fit]. For the same molecule, under setting [2], the AC50 was 20.6 µM [falling, partial curve].
On to `O=C(CN1CCC(NC(=O)C2CCCCC2)CC1)NCc1ccco1`, for which the cell number change was 4.88%. For the same molecule, the concentration at half-maximal activity (AC50) under setting [2] was 0.58 µM [rising, single point].
`CCOc1cc(CNn2cnnc2SCC(=O)NC(C)(C)C)ccc1OCC(=O)NC(C)(C)C`: the cell number change is 15.3%. The half-maximal activity concentration (AC50) under setting [2] was 3.98 µM [rising, partial curve].
As to `CN(C)CC(C)(C)CNS(=O)(=O)CC12CCC(CC1=O)C2(C)C` (centres undefined), the cell number change is -61.6%. Under setting [1], the concentration at half-maximal activity (AC50) is 13 µM [falling, partial curve]. In addition, the concentration at half-maximal activity (AC50) under setting [2] is 16.4 µM [falling, partial curve].
As to `O=C(Nc1ccnn1C1CCN(Cc2ccccc2)CC1)C1CCCC1`, the cell number change was determined as 5.27%.
For the molecule `O=C(O)CCn1c(=O)sc2ccccc21`, the cell number change amounted to 8.78%. Further, the half-maximal activity concentration (AC50) under setting [2] was 25.9 µM [rising, partial curve].
Turning to `O=C(CSc1nnc(-c2ccco2)n1-c1ccccc1)NCC1CCCO1` (centres undefined), the AC50 under setting [2] was 29.1 µM [falling, single point].
On to `CC1CC(C)CN(CCCNC(=O)Cn2ncc3c(=O)oc4ccccc4c32)C1` (centres undefined), for which the cell number change is 35.8%. Further, the AC50 under setting [1] was 7.31 µM [rising, partial curve, poor fit]. Further, the AC50 under setting [2] is 10.3 µM [rising, partial curve, poor fit].
On to `CCc1ccccc1NC1=NCC(=O)N1C1CCCCC1`, for which the cell number change is -40.3%. Besides, the half-maximal activity concentration (AC50) under setting [1] was 29.1 µM [falling, single point]. Under setting [2], the half-maximal activity concentration (AC50) was 6.51 µM [falling, partial curve, poor fit].
For `CCCc1nc2oc3c(NCCN(C)C)ncnc3c2c2c1CCCC2`, the cell number change is -13.3%. Also, the AC50 under setting [2] is 6.51 µM [rising, single point].
`COC(=O)C(=CC(=CN(C)C)C=C(C(=O)OC)C(=O)OC)C(=O)OC`: the cell number change is -37.5%. The AC50 under setting [1] is 29.1 µM [falling, single point].
Regarding `CCOc1ccc(CCNC(=O)COC(=O)c2ccc(Cl)nc2)cc1OCC`, the cell number change is -19%. Also, the half-maximal activity concentration (AC50) under setting [1] is 2.31 µM [falling, single point]. Moreover, the AC50 under setting [2] is 2.91 µM [falling, full curve, poor fit].
Consider `O=C(COc1ccc(Br)cc1CO)Nc1ccccc1`, for which the cell number change is -7.39%.
`CCOc1ccc(NC(=O)CN(C)C(=O)c2ccc3c(c2)C(=O)N(CCC(C)C)C3=O)cc1OCC`: the half-maximal activity concentration (AC50) under setting [2] is 6.51 µM [rising, single point].
Consider `Cc1ccc(-c2nnn(CC(=O)N(CC(=O)NC3CCCCC3)c3ccccc3F)n2)o1`, for which the cell number change was 7.26%.
With `O=C(NCCCN1CCOCC1)c1ccccc1NS(=O)(=O)c1ccc(Br)cc1`, the half-maximal activity concentration (AC50) runs as follows: under setting [1], 0.58 µM [rising, single point]; under setting [2], 5.17 µM [rising, single point].
With `CC1CCCC(NC(=O)CN(C)CC(=O)Nc2ccc(F)cc2)C1C` (centres undefined), the cell number change was determined as 9.27%. For the same molecule, the AC50 under setting [2] is 0.092 µM [rising, single point].
`Cc1ccc(C)c(OCCC(=O)NNC(=O)c2ccccc2F)c1`: the cell number change was 12%.
`O=S(=O)(O)Oc1c[nH]c2ccccc12`: the cell number change stood at 4.36%. For the same molecule, the concentration at half-maximal activity (AC50) under setting [2] is 6.51 µM [rising, single point].
On to `Cc1cc(OCC(=O)C(C)(C)C)c2c(C)c(C)c(=O)oc2c1`, for which the cell number change is -27.1%. The concentration at half-maximal activity (AC50) under setting [2] is 29.1 µM [falling, single point].
`Cc1ccc(C)c(S(=O)(=O)N2CCN(C(=O)CCNC(=O)c3ccc(Br)cc3)CC2)c1`: the cell number change stood at 93.3%.
Take `CCO[C@@H]1OC(C(=O)N2CCN(Cc3ccc4c(c3)OCO4)CC2)=C[C@H](c2ccc(C(F)(F)F)cc2)[C@H]1CCCO`: the cell number change is -23.3%. Moreover, the concentration at half-maximal activity (AC50) under setting [2] is 29.1 µM [falling, single point].
Turning to `COC(=O)C(C(=O)OC)c1ncccc1[N+](=O)[O-]`, the cell number change is -44.9%. The concentration at half-maximal activity (AC50) under setting [1] is 29.1 µM [falling, single point].
As for `CCOc1ccc(C2NC(=O)C(C#N)=C(S)N2c2ccc(C)cc2)cc1OC` (centres undefined), the cell number change stood at 17.5%. Further, the AC50 under setting [1] is 0.00411 µM [falling, full curve, poor fit].
Take `COc1ccc(Cc2noc(CN(C)CC(O)c3ccccc3)n2)cc1OC` (centres undefined): the cell number change amounted to 22.6%. Besides, the half-maximal activity concentration (AC50) under setting [2] was 9.2 µM [rising, partial curve].
On to `CCOC(=O)C1C(=O)NC(N2CCN(Cc3ccccc3)CC2)=NC1c1ccccc1` (centres undefined), for which the cell number change stood at 20.5%. Besides, the AC50 under setting [2] is 0.058 µM [falling, full curve, poor fit].
